PubChem BioAssay AID1224830, NIAID – 2016

- Purpose: 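Host factors that control LPS-induced TNF expression in human macrophages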 (primary screen)
- Cell system: human THP-1 monocytic leukaemia cells, TNF dual-luciferase reporter clone, PMA-differentiated to macrophage-like cells
- Reagents: siRNA pool against human genes, 50 nM
- Duration: LPS for 4 h, given about 3 days after siRNA transfection
- Treatment: bacterial LPS (TLR4 ligand), 10 ng/ml
- Measurement: 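TNF firefly reporter luminescence divided by renilla, normalised to the plate median, then turned into a robust z-score for each replicate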
- Scale: TNF reporter robust z-score: higher = stronger TNF reporter response to LPS
- Rule for the call: 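a well is active when its z-score exceeds 2.8 or falls below -1.5; control wells carry no call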
The whole screen tested about 18,000 reagents; below is an unselected part. About 2,900 of them (16%) count as active. 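Calls are made per well; low scores hint the gene aids the LPS response, high scores that it dampens it.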 Repeated entries: four replicate wells of each siRNA pool.

Target gene	TNF reporter robust z-score	activity call
ZFAND1 (GeneID 79752)	-0.18	inactive
ZFAND1 (GeneID 79752)	0.48	inactive
ZFAND1 (GeneID 79752)	1.54	inactive
ZFAND1 (GeneID 79752)	0.43	inactive
NPAS1 (GeneID 4861)	0.45	inactive
NPAS1 (GeneID 4861)	-0.21	inactive
NPAS1 (GeneID 4861)	0.49	inactive
NPAS1 (GeneID 4861)	2.21	inactive
SNRNP35 (GeneID 11066)	2.55	inactive
SNRNP35 (GeneID 11066)	1.04	inactive
SNRNP35 (GeneID 11066)	2.29	inactive
SNRNP35 (GeneID 11066)	1.51	inactive
SLC4A5 (GeneID 57835)	0.48	inactive
SLC4A5 (GeneID 57835)	-0.41	inactive
SLC4A5 (GeneID 57835)	0.98	inactive
SLC4A5 (GeneID 57835)	0.02	inactive
GPN3 (GeneID 51184)	-0.04	inactive
GPN3 (GeneID 51184)	1.15	inactive
GPN3 (GeneID 51184)	1.51	inactive
GPN3 (GeneID 51184)	2.42	inactive
PPFIA2 (GeneID 8499)	-0.27	inactive
PPFIA2 (GeneID 8499)	0.98	inactive
PPFIA2 (GeneID 8499)	-0.05	inactive
PPFIA2 (GeneID 8499)	-0.11	inactive
MPPE1 (GeneID 65258)	-0.21	inactive
MPPE1 (GeneID 65258)	-0.01	inactive
MPPE1 (GeneID 65258)	-1.1	inactive
MPPE1 (GeneID 65258)	-0.44	inactive
TARBP2 (GeneID 6895)	0.25	inactive
TARBP2 (GeneID 6895)	1.14	inactive
TARBP2 (GeneID 6895)	0.12	inactive
TARBP2 (GeneID 6895)	0.66	inactive
TRMT10B (GeneID 158234)		inactive
TRMT10B (GeneID 158234)	-0.85	inactive
TRMT10B (GeneID 158234)	-0.84	inactive
TRMT10B (GeneID 158234)	-0.62	inactive
TRMT10B (GeneID 158234)	-0.4	inactive
FAU (GeneID 2197)	0.57	inactive
FAU (GeneID 2197)	2.71	inactive
FAU (GeneID 2197)	-0.49	inactive
FAU (GeneID 2197)	0.99	inactive
MRI1 (GeneID 84245)	-0.27	inactive
MRI1 (GeneID 84245)	0.35	inactive
MRI1 (GeneID 84245)	0.61	inactive
MRI1 (GeneID 84245)	1.26	inactive
DPF2 (GeneID 5977)	0.08	inactive
DPF2 (GeneID 5977)	0.64	inactive
DPF2 (GeneID 5977)	-1.9	active
DPF2 (GeneID 5977)	0.51	inactive
FBXO21 (GeneID 23014)	-1.74	active
FBXO21 (GeneID 23014)	-1.63	active
FBXO21 (GeneID 23014)	-1.21	inactive
FBXO21 (GeneID 23014)	-1.97	active
TNFRSF4 (GeneID 7293)	-1.67	active
TNFRSF4 (GeneID 7293)	-0.89	inactive
TNFRSF4 (GeneID 7293)	-1.05	inactive
TNFRSF4 (GeneID 7293)	-0.31	inactive
CXorf65 (GeneID 158830)	-0.93	inactive
CXorf65 (GeneID 158830)	0.72	inactive
CXorf65 (GeneID 158830)	0.25	inactive
CXorf65 (GeneID 158830)	0.93	inactive
GTPBP10 (GeneID 85865)	-0.57	inactive
GTPBP10 (GeneID 85865)	1.34	inactive
GTPBP10 (GeneID 85865)	-0.35	inactive
GTPBP10 (GeneID 85865)	0.97	inactive
CTAGE15 (GeneID 441294)	-0.79	inactive
CTAGE15 (GeneID 441294)	-0.58	inactive
CTAGE15 (GeneID 441294)	-0.64	inactive
CTAGE15 (GeneID 441294)	-0.53	inactive
OR12D2 (GeneID 26529)	-0.56	inactive
OR12D2 (GeneID 26529)	-0.21	inactive
OR12D2 (GeneID 26529)	-0.14	inactive
OR12D2 (GeneID 26529)	0.04	inactive
SHROOM2 (GeneID 357)	0.75	inactive
SHROOM2 (GeneID 357)	0.92	inactive
SHROOM2 (GeneID 357)	-1.16	inactive
SHROOM2 (GeneID 357)	0.7	inactive
DORIP1 (GeneID 122525)	-0.87	inactive
DORIP1 (GeneID 122525)	0.05	inactive
DORIP1 (GeneID 122525)	-0.33	inactive
DORIP1 (GeneID 122525)	-0.18	inactive
DIAPH2 (GeneID 1730)	0.82	inactive
DIAPH2 (GeneID 1730)	0.18	inactive
DIAPH2 (GeneID 1730)	0.17	inactive
DIAPH2 (GeneID 1730)	0.3	inactive
HTR1E (GeneID 3354)	2.12	inactive
HTR1E (GeneID 3354)	1.56	inactive
HTR1E (GeneID 3354)	1.59	inactive
HTR1E (GeneID 3354)	2.18	inactive
NOS3 (GeneID 4846)	-0.16	inactive
NOS3 (GeneID 4846)	-0.29	inactive
NOS3 (GeneID 4846)	-0.28	inactive
NOS3 (GeneID 4846)	0.02	inactive
NIBAN1 (GeneID 116496)	-1.75	active
NIBAN1 (GeneID 116496)	-1.3	inactive
NIBAN1 (GeneID 116496)	-1.06	inactive
NIBAN1 (GeneID 116496)	-1.42	inactive
PKP4 (GeneID 8502)	0.8	inactive
PKP4 (GeneID 8502)	2.49	inactive
PKP4 (GeneID 8502)	2.14	inactive
PKP4 (GeneID 8502)	1.06	inactive
MIGA2 (GeneID 84895)	0.86	inactive
MIGA2 (GeneID 84895)	1.75	inactive
MIGA2 (GeneID 84895)	0.39	inactive
MIGA2 (GeneID 84895)	-0.3	inactive
MBNL3 (GeneID 55796)	-0.67	inactive
MBNL3 (GeneID 55796)	-1.3	inactive
MBNL3 (GeneID 55796)	-1	inactive
MBNL3 (GeneID 55796)	-0.32	inactive
WDR64 (GeneID 128025)	0.47	inactive
WDR64 (GeneID 128025)	-0.27	inactive
WDR64 (GeneID 128025)	-0.01	inactive
WDR64 (GeneID 128025)	-0.16	inactive
PHF10 (GeneID 55274)	-0.08	inactive
PHF10 (GeneID 55274)	-0.17	inactive
PHF10 (GeneID 55274)	0.36	inactive
PHF10 (GeneID 55274)	-0.69	inactive
TDP2 (GeneID 51567)	-0.4	inactive
TDP2 (GeneID 51567)	-0.74	inactive
TDP2 (GeneID 51567)	-0.39	inactive
TDP2 (GeneID 51567)	0.17	inactive
TRAT1 (GeneID 50852)	-1.26	inactive
TRAT1 (GeneID 50852)	-0.95	inactive
TRAT1 (GeneID 50852)	-0.22	inactive
TRAT1 (GeneID 50852)	-1.38	inactive
ADGRF1 (GeneID 266977)	-0.56	inactive
ADGRF1 (GeneID 266977)	-0.45	inactive
ADGRF1 (GeneID 266977)	0.33	inactive
ADGRF1 (GeneID 266977)	1.15	inactive
SUDS3 (GeneID 64426)	0.28	inactive
SUDS3 (GeneID 64426)	-0.55	inactive
SUDS3 (GeneID 64426)	0.79	inactive
SUDS3 (GeneID 64426)	1.12	inactive
IPMK (GeneID 253430)	3.45	active
IPMK (GeneID 253430)	2.06	inactive
IPMK (GeneID 253430)	3.6	active
IPMK (GeneID 253430)	3.57	active
BET1L (GeneID 51272)	-1.84	active
BET1L (GeneID 51272)	-0.89	inactive
BET1L (GeneID 51272)	-0.58	inactive
BET1L (GeneID 51272)	-0.67	inactive
